## Results of single-concentration screens

The chains behind the UniProt entries cited, without tags or fusion partners. Residues count along the entry.
UniProt A4I591, 1-473: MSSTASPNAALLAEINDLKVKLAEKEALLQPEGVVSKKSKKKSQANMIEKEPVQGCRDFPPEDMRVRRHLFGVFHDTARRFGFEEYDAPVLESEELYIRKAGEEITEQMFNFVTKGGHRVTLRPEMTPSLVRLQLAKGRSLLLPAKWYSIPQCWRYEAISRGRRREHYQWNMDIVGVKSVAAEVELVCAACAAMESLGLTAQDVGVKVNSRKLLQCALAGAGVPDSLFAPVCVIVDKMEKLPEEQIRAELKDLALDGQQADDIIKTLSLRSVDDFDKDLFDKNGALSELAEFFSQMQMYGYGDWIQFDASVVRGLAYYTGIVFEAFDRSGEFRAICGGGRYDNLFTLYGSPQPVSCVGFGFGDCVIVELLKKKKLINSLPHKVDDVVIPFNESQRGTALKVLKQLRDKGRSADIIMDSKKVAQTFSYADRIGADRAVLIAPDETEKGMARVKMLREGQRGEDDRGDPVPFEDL
UniProt Q4DA54, 1-478: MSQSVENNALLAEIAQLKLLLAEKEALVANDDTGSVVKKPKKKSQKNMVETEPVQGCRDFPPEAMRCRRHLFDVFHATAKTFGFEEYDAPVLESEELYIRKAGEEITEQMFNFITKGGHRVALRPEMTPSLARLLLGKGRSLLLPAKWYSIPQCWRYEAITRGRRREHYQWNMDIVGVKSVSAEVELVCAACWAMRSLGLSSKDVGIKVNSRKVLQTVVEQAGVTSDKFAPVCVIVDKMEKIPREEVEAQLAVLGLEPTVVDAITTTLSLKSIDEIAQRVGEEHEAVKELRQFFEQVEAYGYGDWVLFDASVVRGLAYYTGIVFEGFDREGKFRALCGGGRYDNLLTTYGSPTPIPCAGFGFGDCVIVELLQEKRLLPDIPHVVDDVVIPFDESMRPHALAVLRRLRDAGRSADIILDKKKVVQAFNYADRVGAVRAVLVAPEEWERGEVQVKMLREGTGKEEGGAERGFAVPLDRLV
UniProt P9WPC5, whole entry: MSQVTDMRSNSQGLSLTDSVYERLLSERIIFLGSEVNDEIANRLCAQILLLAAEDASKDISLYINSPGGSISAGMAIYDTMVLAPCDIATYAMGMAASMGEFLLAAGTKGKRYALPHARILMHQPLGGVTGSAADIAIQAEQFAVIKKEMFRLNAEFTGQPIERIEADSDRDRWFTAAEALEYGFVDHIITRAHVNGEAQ
UniProt P9WPC3, whole entry partner: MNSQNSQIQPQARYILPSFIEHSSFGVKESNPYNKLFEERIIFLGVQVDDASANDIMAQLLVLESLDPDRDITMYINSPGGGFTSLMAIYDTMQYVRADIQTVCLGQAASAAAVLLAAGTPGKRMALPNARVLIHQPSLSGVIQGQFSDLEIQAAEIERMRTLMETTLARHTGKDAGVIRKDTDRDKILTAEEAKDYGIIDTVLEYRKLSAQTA

Each number is a percent effect as filed. The controls that fix the scale are not given in the record; negative values are as filed. The compounds are a random part of those screened.

A: 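Histidine-tRNA ligase, Leishmania infantum (UniProt A4I591). Enzyme assay of histidyl-tRNA synthetase; the read-out is not stated. Compounds at 30 µM. The record gives no direction; compounds that gave an IC50 in retests scored well above the rest, so higher reads as stronger inhibition. The assay is labelled LdHisRS but filed under L. infantum. Of about 69,000 compounds tested this way, about 410 (0.6%) reached 50% or more in at least one test.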
B: 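Enzyme assay of histidyl-tRNA synthetase; the read-out is not stated. Target: Histidine-tRNA ligase, Trypanosoma cruzi CL Brener (UniProt Q4DA54). Concentration: 30 µM. The record gives no direction; compounds that gave an IC50 in retests scored well above the rest, so higher reads as stronger inhibition. Size under these conditions: about 69,000 compounds, about 31 of them at 50% or above in at least one test.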
C: 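ClpP1P2, Mycobacterium tuberculosis (UniProt P9WPC5 and UniProt P9WPC3). Protease assay of ClpP1P2, read by the AMC dye that it sets free. Compounds at 50 µM. Higher reads as stronger inhibition, judged from the few compounds that gave an IC50. Most other retested compounds had strongly negative values. Of about 69,000 compounds tested this way, about 10 (0.015%) reached 50% or more in at least one test.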

SMILES | A | B | C
COCCOc1ccc(F)cc1NCc1nc2ccccc2n1C | 13.25% | 6.468% | -5.552%
CN1CCOC(CNC(=O)C2(c3cccc(C(F)(F)F)c3)CCCC2)C1 (stereo not shown) | 17.7% | 0% | -0.6015%
CC(C)CN(CC(O)c1ccc(F)cc1)C(=O)c1cnsn1 (stereo not shown) | -4.819% | 6.077% | -13.43%
C=C/C=c1\c(=C/C)oc2c(NCc3ccccc3)ncnc12 | 14.29% | 11.88% | 25.67%
CC(C)C(=O)N1CC[C@H]2N(C)CC[C@@]2(C(=O)N2CCCC2)CC1 | 9.615% | 3.883% | -1.103%
O=c1[nH]cc(N2CCCCCC2)c(=O)[nH]1 | 16.67% | 7.292% | 4.755%
O=C(Cc1cccnc1)N1C[C@H]2CC[C@@H]1CN(Cc1ccc(F)cc1)C2 | 1.075% | 2.618% | 0.2787%
N#Cc1ccc(C(=O)N2CCn3c(Cn4cccn4)cnc3C2)cc1 | 7.547% | 7.027% | -5.022%
CS(=O)(=O)c1ccc(C(O)CN2CCC(c3ccn[nH]3)CC2)cc1 (stereo not shown) | -30.34% | 2.256% | 3.295%
Cc1nccc(NCc2cncc3c2CCN(S(C)(=O)=O)C3)n1 | -99.09% | 0% | 2.388%
COc1cc(C)ccc1OCCC(=O)N1CCC(C(N)=O)C1 (stereo not shown) | 20.35% | 1.327% | -1.192%
CNc1ccc(CC2CCCN(C(=O)c3cnccn3)C2)nn1 (stereo not shown) | 7.246% | 6.593% | -10.37%
Cc1ccc(NC2CCN(C(=O)c3c(C)oc(C)c3C)CC2)nn1 | 7.339% | 8.824% | -34.79%
O=C(O)Cn1nc(C2CC2)c2c(-c3ccc(F)cc3)ccnc21 | 14.29% | 7.921% | 1.86%
CCc1nc(C)c(CN2CCCC(c3nn(C)c(=O)n3CC)C2)[nH]1 (stereo not shown) | 34.43% | -1.163% | 2.273%
CN(Cc1ccc(F)cc1)[C@@H]1CN(S(C)(=O)=O)C[C@H]1O | -1.439% | 2.682% | 10.35%
CN(C)C(=O)N1CCC2(CC(=O)N(c3ccc4c(c3)OCO4)C2)C1 (stereo not shown) | 10% | 5.747% | -4.981%
Cc1cc2n(n1)CC(CNCCNC(=O)c1ccc(F)cc1)CN2 (stereo not shown) | 15.07% | 1.97% | -4.062%
CC(C)(C)c1ccc(C2(C(=O)NCCS(C)(=O)=O)CC2)cc1 | 13.98% | 10.12% | 2.017%
Cc1cc(NC(=O)N(CC2CCOC2)C2CC2)no1 (stereo not shown) | 17.57% | -5.66% | -3.337%
CC(C)(C)OC(=O)N1CCN(c2nnc(Br)s2)CC1 | 6.25% | 1.042% | -17.65%
CC1CN(C)c2ccccc2CN1C(=O)c1ccncc1 (stereo not shown) | 9.615% | -1.653% | -9.967%
CC(C)c1ccc(OCCNC(=O)N2CCS(=O)(=O)CC2)cc1 | 12.04% | 0.8798% | -10%
COc1cccc(S(=O)(=O)Cc2cc(C)on2)c1 | 25.71% | 3.061% | 6.69%
CSCc1ccc(C(=O)N2CCN(CC(C)O)CC2)cc1 (stereo not shown) | 14.04% | 3.725% | 12.64%
N[C@H]1CN(S(=O)(=O)c2cccnc2)C[C@@H]1C1CC1 | 14.52% | 4.545% | -2.626%
Cc1noc(C)c1CN1CC[C@H]2OCC[C@@]2(C(=O)NCC2CC2)C1 | 8.257% | 9.244% | 16.83%
CC(C)Sc1ccc(C(C)Nc2nc3c(cnn3C)c(=O)[nH]2)cc1 (stereo not shown) | 13.33% | 4.891% | 6.469%
Cc1cccc(CC(=O)N2CCCCC2CN)c1 (stereo not shown) | 13.16% | 3.448% | -3.199%
CC(C)(C)CC(=O)N1CSCC1C(=O)NCc1cccc(C#N)c1 (stereo not shown) | 1.724% | 4.712% | 5.054%
CCc1noc(CN(C)C(=O)c2ccccc2-c2ncn[nH]2)n1 | 0% | 6.122% | -3.509%
CC(=O)N1CCN(C(=O)c2sccc2Br)CC1 | 11.61% | 0% | 8.397%
COc1ccc(-c2ccc(C(=O)NS(C)(=O)=O)c(F)c2)cc1 | 17.78% | 9.524% | -4.066%
COc1ccc(C(=O)N2CCOCC2c2[nH]ncc2C)cc1F (stereo not shown) | 15.94% | 10.61% | 10.42%
Cc1ccc(CNC(=O)N(C)Cc2cnn(C)c2)s1 | 20.18% | 6.122% | -13.68%
Cc1cccc(COC[C@H]2CC[C@H]3[C@H](CCN3C(=O)CC3CC3)O2)n1 | 13.87% | 7.104% | 9.094%
O=C([C@@H]1C[C@@H]2CCN(c3cccc(F)c3)C[C@H]2O1)N1CCCC1 | 19.44% | 6.667% | -11.6%
Cc1cc(CN(C)C(=O)c2ccc(Cl)c(S(C)(=O)=O)c2)no1 | 17.57% | -2.642% | 0.9621%
CC(=O)c1cccc(OCCCC(=O)N(C)CCC(F)(F)F)c1 | 15.07% | 0% | -10.88%
CC(=O)N1C[C@@H]2CC[C@H](C1)N(Cc1ccc(Cn3cccn3)cc1)C2 | 14.17% | 1.316% | 5.615%
CCCn1ccnc1-c1nccn1CCN(C)C | 3.03% | 3.175% | -0.9805%
OC(CN1CCC(c2ccn[nH]2)CC1)c1ccccc1F (stereo not shown) | 7.143% | 4.651% | -9.424%
CS(=O)(=O)NC1CCCN(C(=O)Nc2cccnc2)C1 (stereo not shown) | 13.27% | 4.956% | -46.4%
O=C(c1cccs1)N1CCC(Cn2nc(-c3ccco3)ccc2=O)CC1 | 33.33% | 2.703% | -6.207%

4 of the entries, repeated:

Result for Cc1noc(C)c1CN1CC[C@H]2OCC[C@@]2(C(=O)NCC2CC2)C1 was A: 8.257%; B: 9.244%; C: 16.83%.
Result for N#Cc1ccc(C(=O)N2CCn3c(Cn4cccn4)cnc3C2)cc1 was A: 7.547%; B: 7.027%; C: -5.022%.
Result for CSCc1ccc(C(=O)N2CCN(CC(C)O)CC2)cc1 (stereo not shown) was A: 14.04%; B: 3.725%; C: 12.64%.
Result for Cc1cccc(CC(=O)N2CCCCC2CN)c1 (stereo not shown) was A: 13.16%; B: 3.448%; C: -3.199%.

Data taken from ChEMBL document CHEMBL3988442, “University of Dundee, Small-Polar-MMV Screening Library” (2021).